This data set has as its system Strain-2 and Strain-3 NHMECs. Format: cell-based. From the text:
Normal human mammary epithelial cell (NHMEC) strains used to assess potential cytotoxicity of 4SP65 and 1LP65 were established from reduction mammoplasty tissue from a healthy donor (M99005 or ‘Strain-1’) ([53]) or purchased from ATCC (Manassas, VA, USA; batch#70043304 or ‘Strain-2’) or Cell Applications (San Diego, CA, USA; lot#1669 or ‘Strain-3’). Human cancer cell lines including HCC38, MDA-MB-231, A549, National Cancer Institute (NCI)-H460, NCI-H1437, NCI-H1975, DU145, LNCaP, PC3, PANC1, SKOV3, and HL60, which were free of Mycoplasma, were purchased from ATCC. HMESO1, PPMMill, and TOV21G cells, obtained from Dr. Brian Cunniff, were verified to be Mycoplasma negative using the LookOut® Mycoplasma PCR Detection Kit (Sigma-Aldrich) and to match previously annotated DNA fingerprints by the Vermont Integrative Genomics Resource DNA Analysis Facility.
To assess the effects of 4SP65 or 1LP65 on the growth of normal epithelium, experiments were performed using NHMEC strains from differing donors ([53]). Strain-1 NHMECs were plated at 5,000 cells/well in 24-well plates and allowed to reach 50% confluence before treatment with 0-150 µM 4SP65 for 48 h. Cell viability was determined using a hemocytometer and trypan blue exclusion assay. Two other NHMEC strains, exposed to 0-150 µM 4SP65 or 0-500 µM 1LP65 for 48 h, were handled in the same fashion except that viability of cells in 96-well plates was determined using CyQUANT dye. Due to the short life span of these NHMECs, standard curves were not generated and fluorescence readings were used as a surrogate marker of cell number ([54]).

Read-outs that look alike come from different tables or passages of the source.

As for 4-star-PEG-S-S-WR1065 [4SP65], the “average effect per unit dose (% growth ÷ exposure concentration)” value is 8.7 (9 µM drug), 1.70 (30 µM drug), 0.23 (90 µM drug) and 0.058 (150 µM drug).

Regarding `COCCOCCOCCOCCOCCOCCSSCCNCCCN.O=C(O)C(F)(F)F.O=C(O)C(F)(F)F` [1LP65, m-PEG6-S-S-WR1065], the “average effect per unit dose (% growth ÷ exposure concentration)” value (90 µM drug) is 2.9, the “average effect per unit dose (% growth ÷ exposure concentration)” value (150 µM drug) is 0.31, the “average effect per unit dose (% growth ÷ exposure concentration)” value (300 µM drug) was 0.06 and the “average effect per unit dose (% growth ÷ exposure concentration)” value (500 µM drug) was determined as 0.03.
